Publication PMC4415471
Results are given in words; binding and its absence hold for the method and conditions named. Binding seen in cells or lysates may run through a third protein. Some entries that bind do so weakly or less than the wild type.

Sequences of proteins named here, by UniProt entry; tags and fusion partners are left off.
UniProt Q9UM54: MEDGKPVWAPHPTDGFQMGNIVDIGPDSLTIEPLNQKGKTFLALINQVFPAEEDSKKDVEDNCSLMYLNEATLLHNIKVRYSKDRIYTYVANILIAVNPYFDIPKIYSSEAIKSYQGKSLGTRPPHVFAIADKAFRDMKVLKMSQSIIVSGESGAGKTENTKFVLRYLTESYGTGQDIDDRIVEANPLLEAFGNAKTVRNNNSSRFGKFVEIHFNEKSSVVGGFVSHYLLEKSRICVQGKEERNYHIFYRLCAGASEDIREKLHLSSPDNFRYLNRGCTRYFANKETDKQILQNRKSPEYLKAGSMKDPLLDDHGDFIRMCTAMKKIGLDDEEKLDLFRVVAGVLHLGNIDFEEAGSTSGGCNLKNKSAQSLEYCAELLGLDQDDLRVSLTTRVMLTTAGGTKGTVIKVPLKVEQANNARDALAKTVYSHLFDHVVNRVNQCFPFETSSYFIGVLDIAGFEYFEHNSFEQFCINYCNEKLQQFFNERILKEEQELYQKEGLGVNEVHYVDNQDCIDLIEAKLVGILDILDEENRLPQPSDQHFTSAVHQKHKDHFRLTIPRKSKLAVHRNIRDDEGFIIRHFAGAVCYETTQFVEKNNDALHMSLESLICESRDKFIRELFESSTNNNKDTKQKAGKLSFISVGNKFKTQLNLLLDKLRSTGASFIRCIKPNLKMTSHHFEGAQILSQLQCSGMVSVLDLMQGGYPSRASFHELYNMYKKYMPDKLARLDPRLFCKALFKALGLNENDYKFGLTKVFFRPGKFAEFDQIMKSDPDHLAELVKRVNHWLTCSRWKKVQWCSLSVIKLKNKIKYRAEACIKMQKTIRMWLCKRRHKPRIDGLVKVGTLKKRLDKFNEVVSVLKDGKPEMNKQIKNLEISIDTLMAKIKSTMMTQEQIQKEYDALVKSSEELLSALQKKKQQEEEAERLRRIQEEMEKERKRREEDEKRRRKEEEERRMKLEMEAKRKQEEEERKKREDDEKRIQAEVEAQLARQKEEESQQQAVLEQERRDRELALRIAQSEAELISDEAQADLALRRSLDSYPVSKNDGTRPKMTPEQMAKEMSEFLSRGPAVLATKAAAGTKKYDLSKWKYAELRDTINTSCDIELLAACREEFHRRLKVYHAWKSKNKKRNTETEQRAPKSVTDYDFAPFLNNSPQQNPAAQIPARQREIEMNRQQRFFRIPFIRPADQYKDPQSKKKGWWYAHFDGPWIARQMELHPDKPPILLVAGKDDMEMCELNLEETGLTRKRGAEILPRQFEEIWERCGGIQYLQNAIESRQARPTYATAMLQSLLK
UniProt Q99996: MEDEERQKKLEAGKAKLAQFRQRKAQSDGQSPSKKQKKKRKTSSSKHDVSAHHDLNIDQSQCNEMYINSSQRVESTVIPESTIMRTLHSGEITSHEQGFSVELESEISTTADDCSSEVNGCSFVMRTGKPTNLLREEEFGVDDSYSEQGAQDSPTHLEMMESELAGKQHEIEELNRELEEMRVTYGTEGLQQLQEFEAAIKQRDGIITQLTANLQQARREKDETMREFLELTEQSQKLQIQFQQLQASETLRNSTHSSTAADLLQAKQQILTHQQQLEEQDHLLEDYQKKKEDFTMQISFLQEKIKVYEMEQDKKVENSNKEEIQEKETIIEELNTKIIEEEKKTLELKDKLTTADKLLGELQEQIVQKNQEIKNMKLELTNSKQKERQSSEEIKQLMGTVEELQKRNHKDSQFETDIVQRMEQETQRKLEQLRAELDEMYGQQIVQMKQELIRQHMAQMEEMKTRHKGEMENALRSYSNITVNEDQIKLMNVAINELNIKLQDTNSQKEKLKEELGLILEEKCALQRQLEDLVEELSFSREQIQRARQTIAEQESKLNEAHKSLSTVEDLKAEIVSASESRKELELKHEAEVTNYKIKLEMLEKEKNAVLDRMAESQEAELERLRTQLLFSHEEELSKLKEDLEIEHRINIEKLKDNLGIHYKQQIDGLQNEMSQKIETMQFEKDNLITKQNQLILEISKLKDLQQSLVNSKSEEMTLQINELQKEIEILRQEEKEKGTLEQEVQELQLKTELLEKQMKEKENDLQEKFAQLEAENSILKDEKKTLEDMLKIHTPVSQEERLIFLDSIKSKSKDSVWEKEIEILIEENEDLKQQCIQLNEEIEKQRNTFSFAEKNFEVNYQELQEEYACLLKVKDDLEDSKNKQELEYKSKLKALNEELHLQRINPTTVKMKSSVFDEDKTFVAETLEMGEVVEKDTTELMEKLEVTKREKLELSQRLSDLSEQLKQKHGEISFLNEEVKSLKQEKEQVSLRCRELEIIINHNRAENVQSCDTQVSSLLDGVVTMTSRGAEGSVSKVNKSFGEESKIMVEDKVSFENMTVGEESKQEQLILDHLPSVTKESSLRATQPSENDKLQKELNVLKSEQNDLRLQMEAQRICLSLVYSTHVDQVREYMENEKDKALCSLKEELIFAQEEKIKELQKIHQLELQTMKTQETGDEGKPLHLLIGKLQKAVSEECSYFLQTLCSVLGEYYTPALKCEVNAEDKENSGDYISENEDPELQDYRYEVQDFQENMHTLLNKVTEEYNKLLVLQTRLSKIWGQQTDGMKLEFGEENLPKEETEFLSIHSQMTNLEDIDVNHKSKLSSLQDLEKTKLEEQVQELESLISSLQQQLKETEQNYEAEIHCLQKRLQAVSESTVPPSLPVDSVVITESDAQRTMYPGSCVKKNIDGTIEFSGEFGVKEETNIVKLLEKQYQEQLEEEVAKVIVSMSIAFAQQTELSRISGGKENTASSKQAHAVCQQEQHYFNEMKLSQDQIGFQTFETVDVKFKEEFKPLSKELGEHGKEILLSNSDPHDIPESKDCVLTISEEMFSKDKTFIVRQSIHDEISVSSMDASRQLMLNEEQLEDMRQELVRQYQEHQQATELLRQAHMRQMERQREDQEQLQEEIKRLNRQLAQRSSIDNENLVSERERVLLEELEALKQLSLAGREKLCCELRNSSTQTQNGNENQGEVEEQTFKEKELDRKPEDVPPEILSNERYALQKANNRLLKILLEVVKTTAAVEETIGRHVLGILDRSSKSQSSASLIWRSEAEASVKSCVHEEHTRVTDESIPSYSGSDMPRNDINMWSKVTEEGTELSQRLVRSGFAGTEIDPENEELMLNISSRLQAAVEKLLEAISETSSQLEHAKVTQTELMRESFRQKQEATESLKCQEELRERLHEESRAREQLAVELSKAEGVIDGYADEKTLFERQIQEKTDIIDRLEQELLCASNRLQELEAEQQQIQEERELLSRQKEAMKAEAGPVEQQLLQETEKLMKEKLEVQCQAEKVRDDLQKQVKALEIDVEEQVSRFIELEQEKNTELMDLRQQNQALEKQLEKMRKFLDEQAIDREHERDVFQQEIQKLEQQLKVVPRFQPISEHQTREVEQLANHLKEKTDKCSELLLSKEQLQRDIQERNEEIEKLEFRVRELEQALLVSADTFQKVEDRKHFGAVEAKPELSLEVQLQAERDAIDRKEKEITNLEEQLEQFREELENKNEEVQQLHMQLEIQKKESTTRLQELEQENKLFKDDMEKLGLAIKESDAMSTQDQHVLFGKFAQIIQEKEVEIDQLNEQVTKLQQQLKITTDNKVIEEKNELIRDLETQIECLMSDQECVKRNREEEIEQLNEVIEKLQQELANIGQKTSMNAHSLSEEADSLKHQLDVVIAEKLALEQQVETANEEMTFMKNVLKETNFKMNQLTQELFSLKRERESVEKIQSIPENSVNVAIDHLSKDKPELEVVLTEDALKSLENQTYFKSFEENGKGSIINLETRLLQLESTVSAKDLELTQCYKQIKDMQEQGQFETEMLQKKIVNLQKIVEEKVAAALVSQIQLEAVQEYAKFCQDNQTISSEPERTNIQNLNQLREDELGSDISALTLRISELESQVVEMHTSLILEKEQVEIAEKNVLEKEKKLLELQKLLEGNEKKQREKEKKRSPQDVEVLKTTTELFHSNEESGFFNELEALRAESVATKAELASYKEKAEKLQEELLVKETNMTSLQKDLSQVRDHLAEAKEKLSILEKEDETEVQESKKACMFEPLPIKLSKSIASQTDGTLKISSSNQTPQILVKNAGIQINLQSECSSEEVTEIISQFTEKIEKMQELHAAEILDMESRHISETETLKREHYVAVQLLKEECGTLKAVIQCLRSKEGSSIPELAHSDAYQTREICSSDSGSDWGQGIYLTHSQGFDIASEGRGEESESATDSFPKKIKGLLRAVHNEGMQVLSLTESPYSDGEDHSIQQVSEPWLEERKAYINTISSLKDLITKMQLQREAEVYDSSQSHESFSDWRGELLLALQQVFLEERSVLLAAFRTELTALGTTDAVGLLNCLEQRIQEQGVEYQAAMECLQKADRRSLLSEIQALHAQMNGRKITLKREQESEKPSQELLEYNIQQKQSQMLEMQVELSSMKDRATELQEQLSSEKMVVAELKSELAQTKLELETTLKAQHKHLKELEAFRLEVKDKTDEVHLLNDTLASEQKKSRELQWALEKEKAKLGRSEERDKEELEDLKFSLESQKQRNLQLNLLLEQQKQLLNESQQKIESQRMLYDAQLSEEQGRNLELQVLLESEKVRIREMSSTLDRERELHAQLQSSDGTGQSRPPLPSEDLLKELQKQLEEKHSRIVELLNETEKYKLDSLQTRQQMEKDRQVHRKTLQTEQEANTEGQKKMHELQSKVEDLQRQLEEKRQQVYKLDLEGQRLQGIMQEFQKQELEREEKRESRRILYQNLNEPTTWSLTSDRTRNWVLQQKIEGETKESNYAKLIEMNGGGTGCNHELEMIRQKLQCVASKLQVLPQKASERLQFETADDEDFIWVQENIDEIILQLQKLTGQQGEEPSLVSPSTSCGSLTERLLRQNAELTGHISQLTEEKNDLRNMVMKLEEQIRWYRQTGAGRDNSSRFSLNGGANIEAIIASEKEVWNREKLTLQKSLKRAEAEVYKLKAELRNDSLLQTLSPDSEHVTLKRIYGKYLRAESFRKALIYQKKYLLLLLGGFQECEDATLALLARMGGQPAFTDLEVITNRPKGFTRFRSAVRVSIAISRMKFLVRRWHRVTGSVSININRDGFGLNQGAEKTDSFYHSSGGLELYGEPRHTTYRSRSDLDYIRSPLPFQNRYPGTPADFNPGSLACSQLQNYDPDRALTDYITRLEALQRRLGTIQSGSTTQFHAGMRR

Target: GFP-tagged full length human MVI heavy chain (human) (UniProt Q9UM54)
Experiment: co-IP; lysates of HEK 293 cells transiently transfected with GFP-tagged full length human MVI; anti-MVI antibody or normal rabbit serum overnight at 4°C, A/G magnetic beads; 50 mM Tris pH 7.5, 150 mM NaCl, 0.2% Triton X-100, 2 mM MgATP; blot with anti-AKAP9 or anti-DOCK7

| Substance | binding |
| --- | --- |
| AKAP9, endogenous in HEK 293 cells (from UniProt Q99996 1-3907) | binds |
| DOCK7, endogenous in HEK 293 cells (from UniProt Q96N67 1-2140) | binds |
